Results: patent US20150174203A1
No constants are given. Whether binding was seen depends on the method and setting. For part of these data: Binding seen in cells or lysates may run through a third protein. Some entries that bind do so weakly or less than the wild type. Tags and fused reporters may be left off the sequences shown.

Chains of the proteins cited; added tags and fusions are not shown. Lines headed by an entry give the natural chain unless they say otherwise; changes in a name come on top.
UniProt O75023: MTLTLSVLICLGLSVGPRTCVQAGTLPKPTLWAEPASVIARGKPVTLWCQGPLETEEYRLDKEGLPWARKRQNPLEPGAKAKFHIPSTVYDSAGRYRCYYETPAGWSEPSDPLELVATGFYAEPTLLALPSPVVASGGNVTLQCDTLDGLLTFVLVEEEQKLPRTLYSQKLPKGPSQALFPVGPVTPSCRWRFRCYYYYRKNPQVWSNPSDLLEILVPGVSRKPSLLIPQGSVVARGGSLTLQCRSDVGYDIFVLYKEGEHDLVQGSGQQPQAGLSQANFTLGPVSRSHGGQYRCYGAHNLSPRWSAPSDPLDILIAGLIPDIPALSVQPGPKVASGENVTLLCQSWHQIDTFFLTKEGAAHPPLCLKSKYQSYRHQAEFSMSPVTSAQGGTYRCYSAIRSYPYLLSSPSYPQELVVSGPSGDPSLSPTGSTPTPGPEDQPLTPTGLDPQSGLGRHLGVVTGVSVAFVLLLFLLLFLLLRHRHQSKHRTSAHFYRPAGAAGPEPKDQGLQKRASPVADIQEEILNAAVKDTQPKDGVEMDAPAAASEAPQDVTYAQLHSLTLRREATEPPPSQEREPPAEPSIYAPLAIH
UniProt O75022: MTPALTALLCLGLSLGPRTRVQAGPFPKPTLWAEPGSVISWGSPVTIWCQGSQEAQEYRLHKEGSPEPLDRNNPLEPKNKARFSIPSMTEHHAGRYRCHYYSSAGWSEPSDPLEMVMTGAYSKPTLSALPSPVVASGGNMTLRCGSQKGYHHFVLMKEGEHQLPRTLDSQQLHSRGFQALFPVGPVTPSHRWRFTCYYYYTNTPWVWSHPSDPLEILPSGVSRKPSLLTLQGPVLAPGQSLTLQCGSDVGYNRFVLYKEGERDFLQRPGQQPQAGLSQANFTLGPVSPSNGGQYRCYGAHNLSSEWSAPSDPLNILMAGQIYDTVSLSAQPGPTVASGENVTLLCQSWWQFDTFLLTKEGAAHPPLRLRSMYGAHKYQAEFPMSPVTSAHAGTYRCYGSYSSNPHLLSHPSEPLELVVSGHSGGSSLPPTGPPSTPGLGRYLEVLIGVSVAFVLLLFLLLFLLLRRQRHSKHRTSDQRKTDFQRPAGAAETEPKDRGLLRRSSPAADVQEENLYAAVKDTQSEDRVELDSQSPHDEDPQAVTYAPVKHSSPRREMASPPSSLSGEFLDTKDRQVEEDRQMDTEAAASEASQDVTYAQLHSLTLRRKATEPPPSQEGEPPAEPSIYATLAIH

Legend:
human LILRB2 (human) [1] = biological target: human LILRB2 (human) (UniProt Q8N423); assay: flow cytometry, LILRB2-transfected 293T cells and human cord blood LILRB2+ cells
human LILRB2 (human) [2] = biological target: human LILRB2 (human) (UniProt Q8N423); assay: relative binding to LILRB2+ human cord blood cells from flow cytometry, compared with control, n=3
mouse LAIR1 (mouse) = biological target: T1, mouse LAIR1 (mouse) (UniProt Q8BG84); assay: flow cytometry on LAIR1-transfected 293T cells, anti-FLAG-APC and anti-LAIR1-PE
T1 sequence (looked up): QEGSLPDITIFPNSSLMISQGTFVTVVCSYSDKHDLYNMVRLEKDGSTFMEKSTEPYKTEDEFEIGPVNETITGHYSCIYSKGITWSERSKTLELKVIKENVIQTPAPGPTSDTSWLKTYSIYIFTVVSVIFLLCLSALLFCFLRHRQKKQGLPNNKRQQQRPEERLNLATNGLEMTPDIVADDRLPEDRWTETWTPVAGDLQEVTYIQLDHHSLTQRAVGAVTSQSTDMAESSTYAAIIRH

human LILRB2 (human) [3] = biological target: human LILRB2 (human) (UniProt Q8N423); assay: flow cytometry on human cord blood cells
[4] = biological target: T2, LILRB2 extracellular domain fused to human IgG-Fc (human) (UniProt Q8N423); assay: co-transfection in 293T cells, IP with protein A, Western blot
T2 sequence: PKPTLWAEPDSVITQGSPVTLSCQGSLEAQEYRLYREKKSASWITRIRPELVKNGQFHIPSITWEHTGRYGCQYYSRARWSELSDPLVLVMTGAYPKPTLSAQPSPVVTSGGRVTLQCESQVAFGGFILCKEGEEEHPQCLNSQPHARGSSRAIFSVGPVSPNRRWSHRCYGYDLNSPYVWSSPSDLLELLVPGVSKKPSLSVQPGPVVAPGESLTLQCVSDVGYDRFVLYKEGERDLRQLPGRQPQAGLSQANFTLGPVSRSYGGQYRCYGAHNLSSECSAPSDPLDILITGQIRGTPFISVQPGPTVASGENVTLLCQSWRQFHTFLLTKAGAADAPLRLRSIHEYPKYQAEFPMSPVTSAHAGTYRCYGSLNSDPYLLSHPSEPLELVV

human LILRB2 (human) [5] = biological target: human LILRB2 (human) (UniProt Q8N423); assay: summary of binding to LILRB2; method not given in the table
[6] = biological target: T3, PirB extracellular domain fused to human Fc (mouse; human) (UniProt P97484); assay: co-IP from conditioned medium of co-transfected 293T cells
T3 sequence (looked up): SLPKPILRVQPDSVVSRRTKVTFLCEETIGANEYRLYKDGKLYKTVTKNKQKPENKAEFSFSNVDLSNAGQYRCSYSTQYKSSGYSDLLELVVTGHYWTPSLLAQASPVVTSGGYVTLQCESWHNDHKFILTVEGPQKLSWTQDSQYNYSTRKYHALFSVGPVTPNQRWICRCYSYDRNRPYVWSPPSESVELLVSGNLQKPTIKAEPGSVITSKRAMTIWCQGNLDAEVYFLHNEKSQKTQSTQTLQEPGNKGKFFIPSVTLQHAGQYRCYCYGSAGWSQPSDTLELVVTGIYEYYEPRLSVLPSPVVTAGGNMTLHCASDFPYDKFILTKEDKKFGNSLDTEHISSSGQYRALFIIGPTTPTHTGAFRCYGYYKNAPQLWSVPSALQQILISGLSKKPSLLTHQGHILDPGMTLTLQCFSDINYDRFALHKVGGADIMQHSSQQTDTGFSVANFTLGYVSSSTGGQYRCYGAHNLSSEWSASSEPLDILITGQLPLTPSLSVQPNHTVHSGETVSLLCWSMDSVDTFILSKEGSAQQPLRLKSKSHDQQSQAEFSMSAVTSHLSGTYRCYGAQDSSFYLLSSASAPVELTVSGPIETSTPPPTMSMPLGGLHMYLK

LILRB5 (human) = LILRB5 (human) (UniProt O75023); assay: flow cytometry on transfected 293T cells
LILRB3 (human) = LILRB3 (human) (UniProt O75022); assay: flow cytometry on transfected 293T cells
human LILRB2 (human) [7] = biological target: human LILRB2 (human) (UniProt Q8N423); assay: flow cytometry on LILRB2-overexpressing 293T cells
[8] = biological target: T4, paired immunoglobulin-like receptor B (PirB) (mouse) (UniProt P97484); assay: flow cytometry on PirB-transfected 293T cells
T4 sequence (looked up): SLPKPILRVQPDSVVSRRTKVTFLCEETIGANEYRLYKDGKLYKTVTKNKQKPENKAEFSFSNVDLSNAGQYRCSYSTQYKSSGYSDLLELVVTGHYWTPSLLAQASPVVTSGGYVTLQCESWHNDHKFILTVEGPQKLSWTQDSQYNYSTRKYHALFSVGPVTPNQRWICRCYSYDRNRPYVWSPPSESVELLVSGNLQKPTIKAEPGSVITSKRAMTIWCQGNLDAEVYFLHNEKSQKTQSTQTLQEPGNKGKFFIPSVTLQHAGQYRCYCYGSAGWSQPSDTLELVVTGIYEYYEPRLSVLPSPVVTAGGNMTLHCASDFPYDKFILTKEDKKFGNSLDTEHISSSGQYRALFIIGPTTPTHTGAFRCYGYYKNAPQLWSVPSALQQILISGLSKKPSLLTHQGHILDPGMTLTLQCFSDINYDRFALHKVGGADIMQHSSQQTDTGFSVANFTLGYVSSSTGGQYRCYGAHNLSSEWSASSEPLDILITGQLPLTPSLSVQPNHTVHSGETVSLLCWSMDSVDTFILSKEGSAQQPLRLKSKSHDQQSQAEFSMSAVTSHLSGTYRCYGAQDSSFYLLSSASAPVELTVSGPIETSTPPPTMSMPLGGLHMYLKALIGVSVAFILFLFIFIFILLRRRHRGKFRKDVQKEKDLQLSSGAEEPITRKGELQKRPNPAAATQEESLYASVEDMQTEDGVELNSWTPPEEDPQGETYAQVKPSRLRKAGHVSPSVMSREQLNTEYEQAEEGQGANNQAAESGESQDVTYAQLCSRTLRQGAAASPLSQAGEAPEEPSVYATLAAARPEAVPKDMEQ

[9] = biological target: T2, LILRB2 extracellular domain fused to human IgG-Fc (human); assay: in vitro co-IP of purified proteins, protein A beads, Western blot
[10] = biological target: T4, paired immunoglobulin-like receptor B (PirB) (mouse); assay: flow cytometry, MDSCs of WT or PIR-B KO mice, pre-incubated with vehicle or GA (50 ug/mL), stained with angptl-2-Flag plus anti-Flag-FITC; GA and vehicle traces cannot be told apart on the scan
human LILRB2 (human) [11] = biological target: human LILRB2 (human) (UniProt Q8N423); assay: flow cytometry on LILRB2-expressing cells
[12] = biological target: T4, paired immunoglobulin-like receptor B (PirB) (mouse); assay: flow cytometry on WT and PIR-B KO mouse MDSCs, anti-Flag-FITC
human LILRB2 (human) [13] = biological target: human LILRB2 (human) (UniProt Q8N423); assay: flow cytometry on human cord blood LILRB2+ cells
[14] = biological target: T2, LILRB2 extracellular domain fused to human IgG-Fc (human); assay: in vivo co-IP
[15] = biological target: T2, LILRB2 extracellular domain fused to human IgG-Fc (human); assay: in vivo co-IP (Table 2)

Measured: binding

B1: human Angptl-1 with FLAG tag at the C-terminus (ligand, not shown: small tags and cut ends)
chain: GQFKIKKINQRRYPRATDGKEEAKKCAYTFLVPEQRITGPICVNTKGQDASTIKDMITRMDLENLKDVLSRQKREIDVLQLVVDVDGNIVNEVKLLRKESRNMNSRVTQLYMQLLHEIIRKRDNSLELSQLENKILNVTTEMLKMATRYRELEVKYASLTDLVNNQSVMITLLEEQCLRIFSRQDTHVSPPLVQVVPQHIPNSQQYTPGLLGGNEIQRDPGYPRDLMPPPDLATSPTKSPFKIPPVTFINEGPFKDCQQAKEAGHSVSGIYMIKPENSNGPMQLWCENSLDPGGWTVIQKRTDGSVNFFRNWENYKKGFGNIDGEYWLGLENIYMLSNQDNYKLLIELEDWSDKKVYAEYSSFRLEPESEFYRLRLGTYQGNAGDSMMWHNGKQFTTLDRDKDMYAGNCAHFHKGGWWYNACAHSNLNGVWYRGGHYRSKHQDGIFWAEYRGGSYSLRAVQMMIKPID
binds: human LILRB2 (human) [1] | human LILRB2 (human) [2] | mouse LAIR1 (mouse) | human LILRB2 (human) [3]

B2: human Angptl-2 with FLAG tag at the C-terminus, mammalian-expressed (ligand, not shown: small tags and cut ends)
chain: QEDGFEGTEEGSPREFIYLNRYKRAGESQDKCTYTFIVPQQRVTGAICVNSKEPEVLLENRVHKQELELLNNELLKQKRQIETLQQLVEVDGGIVSEVKLLRKESRNMNSRVTQLYMQLLHEIIRKRDNALELSQLENRILNQTADMLQLASKYKDLEHKYQHLATLAHNQSEIIAQLEEHCQRVPSARPVPQPPPAAPPRVYQPPTYNRIINQISTNEIQSDQNLKVLPPPLPTMPTLTSLPSSTDKPSGPWRDCLQALEDGHDTSSIYLVKPENTNRLMQVWCDQRHDPGGWTVIQRRLDGSVNFFRNWETYKQGFGNIDGEYWLGLENIYWLTNQGNYKLLVTMEDWSGRKVFAEYASFRLEPESEYYKLRLGRYHGNAGDSFTWHNGKQFTTLDRDHDVYTGNCAHYQKGGWWYNACAHSNLNGVWYRGGHYRSRYQDGVYWAEFRGGSYSLKKVVMMIRPNPNTFH
not listed: mouse LAIR1 (mouse) | human LILRB2 (human) [13] | [14] | [15]
binds: all other assays above

B3: GST-Angptl-1 (ligand, not shown: a dimerising Fc or GST; small tags and cut ends)
chain: GQFKIKKINQRRYPRATDGKEEAKKCAYTFLVPEQRITGPICVNTKGQDASTIKDMITRMDLENLKDVLSRQKREIDVLQLVVDVDGNIVNEVKLLRKESRNMNSRVTQLYMQLLHEIIRKRDNSLELSQLENKILNVTTEMLKMATRYRELEVKYASLTDLVNNQSVMITLLEEQCLRIFSRQDTHVSPPLVQVVPQHIPNSQQYTPGLLGGNEIQRDPGYPRDLMPPPDLATSPTKSPFKIPPVTFINEGPFKDCQQAKEAGHSVSGIYMIKPENSNGPMQLWCENSLDPGGWTVIQKRTDGSVNFFRNWENYKKGFGNIDGEYWLGLENIYMLSNQDNYKLLIELEDWSDKKVYAEYSSFRLEPESEFYRLRLGTYQGNAGDSMMWHNGKQFTTLDRDKDMYAGNCAHFHKGGWWYNACAHSNLNGVWYRGGHYRSKHQDGIFWAEYRGGSYSLRAVQMMIKPID
binds: human LILRB2 (human) [13]

B4: untagged Angptl-2, mammalian-expressed (ligand)
chain: QEDGFEGTEEGSPREFIYLNRYKRAGESQDKCTYTFIVPQQRVTGAICVNSKEPEVLLENRVHKQELELLNNELLKQKRQIETLQQLVEVDGGIVSEVKLLRKESRNMNSRVTQLYMQLLHEIIRKRDNALELSQLENRILNQTADMLQLASKYKDLEHKYQHLATLAHNQSEIIAQLEEHCQRVPSARPVPQPPPAAPPRVYQPPTYNRIINQISTNEIQSDQNLKVLPPPLPTMPTLTSLPSSTDKPSGPWRDCLQALEDGHDTSSIYLVKPENTNRLMQVWCDQRHDPGGWTVIQRRLDGSVNFFRNWETYKQGFGNIDGEYWLGLENIYWLTNQGNYKLLVTMEDWSGRKVFAEYASFRLEPESEYYKLRLGRYHGNAGDSFTWHNGKQFTTLDRDHDVYTGNCAHYQKGGWWYNACAHSNLNGVWYRGGHYRSRYQDGVYWAEFRGGSYSLKKVVMMIRPNPNTFH
binds: [14] | [15]
